# Values from PubChem BioAssay AID504784 (Drosophila RNAi Screening Center, 2011).
# Assay: 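Fly genes whose silencing alters how much lipid cells keep in droplets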 (primary screen)
# Cell system: Drosophila Kc167 embryonic cells
# Reagents: long dsRNA against Drosophila genes, about 250 ng dsRNA per well
# Time to read-out: 4 days
# Treatment: cells fed 400 µM oleic acid bound to BSA
# Measured: 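Cells imaged and segmented; ratio of lipid droplet area to nuclear area, log-transformed, then normalised as a B-score over the screen; higher means more stored lipid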
# Direction: droplet/nuclear area B-score: higher = more stored lipid (overstorage)
# In all, the deposit lists about 17,000 reagents; below is a random part of those with a known target gene and a result. 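Each column is one replicate's B-score; the combined score over replicates was not deposited, so single values may mislead.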 Reagents against one gene are numbered here. A plus sign joins genes that one reagent is predicted to hit.
target,reagent,"droplet/nuclear area B-score, replicate 1","droplet/nuclear area B-score, replicate 2","droplet/nuclear area B-score, replicate 3"
alphaTry,1,0.826,1.3,
Rfx,1,-0.523,-0.0355,
krz,1,-0.211,-1.17,
CG15554,1,0.0474,-0.948,
dlg1,1,0.414,0.378,
dlg1,2,-0.121,1.93,3.1
dlg1,3,-0.092,-0.705,-0.0684
Eaf6,1,0.624,-0.619,
RpS19b,1,5.41,1.61,
Srrm234,1,-0.0734,-1.18,
Srrm234,2,-0.0293,1.11,
CG16956,1,-0.588,-1.27,
scro,1,-0.702,1.07,
betaNACtes1,1,-0.0666,-0.00488,
wda,1,0.737,0.447,-0.0344
wda,2,0,1.54,
CG5721,1,-1.16,-1.67,
alph,1,-1.87,-0.674,
CG8298,1,0.242,1.51,
east,1,0.698,1.62,
CheB93b,1,0.491,-0.281,
PPP4R2r,1,0.376,0.66,1.17
PPP4R2r,2,-1.05,-0.0171,
Polr3D,1,1.34,0.712,0.617
Rnb,1,0.461,-0.688,
CG12035,1,0.161,-0.093,
Art8,1,-0.177,-0.129,
CG13970,1,-2.36,2.21,
CG42816 + CG42815,1,-0.0653,0.498,
CG14931,1,-3.73,-0.353,
caup,1,-2.88,-1.84,
caup,2,0.704,-0.816,
CG3708,1,1.03,0.0244,
fus,1,0.344,0.176,
fus,2,0.332,1.06,

Individual results from the list:
CheB93b, droplet/nuclear area B-score, replicate 2: -0.281
Entry of CG14931 under “droplet/nuclear area B-score, replicate 1”: -3.73
For “droplet/nuclear area B-score, replicate 2”, CG12035 reads -0.093
